PubChem BioAssay (EPA / NIEHS)
Several values for one entry are separate records, joined by “and”; a condition that tells them apart may be missing. Equal values may be shown once. The shares of active, inactive and inconclusive entries below differ from those in the screen. A potency beside an inconclusive call is a rough fit, not a confirmed value. Activity calls are given as the source filed them. Rule for the calls: active = hit-call score of the fitted dose curve at least 0.9, where 1 is the maximum; inconclusive = response in the unintended direction; inactive = score below 0.9.

Protein sequences, listed by entry. Tags and fused reporters are not part of them. Lines headed by an entry give the natural chain unless they say otherwise; changes in a name come on top.
UniProt Q96RI1: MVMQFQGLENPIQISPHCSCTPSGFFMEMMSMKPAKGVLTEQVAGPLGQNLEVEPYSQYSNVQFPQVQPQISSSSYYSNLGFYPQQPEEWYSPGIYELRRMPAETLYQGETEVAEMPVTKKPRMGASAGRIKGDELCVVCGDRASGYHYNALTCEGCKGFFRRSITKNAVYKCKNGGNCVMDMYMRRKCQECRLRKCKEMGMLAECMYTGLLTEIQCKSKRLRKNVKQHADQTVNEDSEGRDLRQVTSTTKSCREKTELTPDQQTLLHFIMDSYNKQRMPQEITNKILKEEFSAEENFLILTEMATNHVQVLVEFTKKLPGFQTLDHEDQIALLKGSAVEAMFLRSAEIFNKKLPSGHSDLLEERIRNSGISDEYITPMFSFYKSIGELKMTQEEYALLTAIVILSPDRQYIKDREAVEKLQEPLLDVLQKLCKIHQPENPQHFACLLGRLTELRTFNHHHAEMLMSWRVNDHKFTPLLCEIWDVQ

The compounds below were run against Bile acid receptor (Homo sapiens) (UniProt Q96RI1) (assay: OT_FXR_FXRSRC1_1440: Odyssey Thera (OT) 24-hour HEK293T Protein-Complementation Assay for Farnesoid X receptor/SRC-1 Co-activator (AID 2283384)).
Procedure: OT_FXR_FXRSRC1_1440 is a cell-based assay that uses HEK293T, a human kidney cell line, with measurements taken at 24 hours after chemical dosing in a 384-well plate.OT_FXR_FXRSRC1_1440 is one of one assay component(s) measured or calculated from the OT_FXR_FXRSRC1_1440 assay. It is designed to make measurements of protein fragment complementation, a form of binding reporter, as detected with fluorescence intensity signals by Protein-fragment Complementation technology.Data from the assay component OT_FXR_FXRSRC1_1440 was analyzed into 1 assay endpoint. This assay endpoint, OT_FXR_FXRSRC1_1440, was analyzed in the positive analysis fitting direction relative to DMSO as the negative control and baseline of activity. Using a type of binding reporter, measures of receptor for gain-of-signal activity can be used to understand the binding at the pathway-level as they relate to the gene NR1H4. Furthermore, this assay endpoint can be referred to as a primary readout, because the performed assay has only produced 1 assay endpoint. To generalize the intended target to other relatable targets, this assay endpoint is annotated to the nuclear receptor intended target family, where the subfamily is non-steroidal.
Protein-fragment complementation assay, or PCA, is a method for the identification and quantification of protein-protein interactions. In the PCA, the proteins of interest ("bait" and "prey") are each covalently linked to fragments of a third protein (e.g. DHFR, which acts as a "reporter"). Interaction between the bait and the prey proteins brings the fragments of the reporter protein in close proximity to allow them to form a functional reporter protein whose activity can be measured.
For `CCCCCCCCCCOS(=O)(=O)O`, the AC50 was inconclusive: 12.7 µM.
`O=C(O)c1cccc(C(=O)O)n1` was tested, and the AC50 was inconclusive: 14.5 µM.
`Cc1ccc(O)c(-n2nc3ccccc3n2)c1` was tested, and the outcome was “inactive”.
With `CCc1c(C(=O)NN2CCCCC2)nn(-c2ccc(Cl)cc2Cl)c1-c1ccc(Br)cc1` the AC50 was active: 1.28 µM.
For `CCCCCCCCOC(=O)c1cc(O)c(O)c(O)c1`, the AC50 was inconclusive: 79.4 µM.
In the case of `COc1cccc(-c2ccc(/C=C\CN3CCCCCC3)cc2Cl)c1`, the AC50 is reported as inconclusive: 80.8 µM.
`Cc1ccc(C)c(OCCCC(C)(C)C(=O)O)c1` was tested, and the outcome was “inactive”.
With `CCCCCCCCCCCCCC[N+](C)(C)C` the AC50 was inconclusive: 19.6 µM.
With `CC(=O)N1CCN(c2ccc(OC[C@H]3CO[C@](Cn4ccnc4)(c4ccc(Cl)cc4Cl)O3)cc2)CC1` the AC50 was inconclusive: 50 µM.
With `O=C(O)CN(CC(=O)O)CC(=O)O` the AC50 was inconclusive: 45.8 µM.
In the case of `Cc1cc2c(cc1C(F)(F)F)N(C(=O)Nc1ccc(Oc3cccnc3C)nc1)CC2`, the AC50 is reported as active: 4.55 µM.
With `CCCCCCCC/C=C\CCCCCCCC(=O)O` the AC50 was inconclusive: 13.6 µM.
In the case of `CCCCCCCCO[C@@H]1O[C@H](CO)[C@@H](O)[C@H](O)[C@H]1O`, the AC50 is reported as inconclusive: 22.5 µM.
For `Cc1cn([C@H]2C[C@H](N=[N+]=[N-])[C@@H](CO)O2)c(=O)[nH]c1=O`, the AC50 was inconclusive: 50 µM.
In the case of `c1ccc(CCCc2ccccn2)cc1`, the outcome is reported as “inactive”.
With `O=S(=O)(O)c1cc(S(=O)(=O)O)c2c(N=Nc3ccccc3)c(O)ccc2c1` the AC50 was inconclusive: 50 µM.
With `COc1ccc(C(=O)Nc2nc3ccccc3c(NCc3ccccc3)c2C#N)cc1` the AC50 was active: 14.4 µM.
In the case of `COc1cc(O)c(C(=O)c2ccccc2)cc1S(=O)(=O)O`, the AC50 is reported as inconclusive: 6.29 µM.
With `CC(C)(C)C(=O)c1ccccc1` the AC50 was inconclusive: 50 µM.
With `CN1CCN(c2ccccc2/C=C2\SCCN(c3ccc(Cl)c(Cl)c3)C2=O)CC1` the AC50 was inconclusive: 23.8 µM.
With `O=C(c1ccccc1)C1CCCCC1` the outcome was “inactive” and the AC50 was inconclusive: 50 µM.
For `CC[C@H](C)[C@@H](C(=O)O)n1sc2ccccc2c1=O`, the AC50 was inconclusive: 50 µM.
`CCCCCCCC[N+](C)(CCCCCCCC)CCCCCCCC` was tested, and the AC50 was inconclusive: 3.98 µM.
In the case of `Clc1cc(Cl)c2c(c1)N=C1CCCCCN1C2`, the outcome is reported as “inactive”.
In the case of `Oc1ccc2ccccc2c1N=Nc1ccccc1`, the AC50 is reported as active: 32.9 µM.
With `CCCCCCCCCCCCCC(=O)O` the AC50 was active: 81.8 µM.
For `C=CCOC(=O)c1ccccc1C(=O)OCC=C`, the outcome was “inactive”.
`CN(C)c1ccc2nc3ccc(=[N+](C)C)cc-3sc2c1` was tested, and the AC50 was inconclusive: 28.1 µM.
`COc1ccc(OC(F)(F)F)cc1CN[C@H]1CCCN[C@H]1c1ccccc1` was tested, and the AC50 was inconclusive: 91.6 µM.
With `NC(=O)Cn1c(=O)cc(CCN2CCN(c3nccc4sccc34)CC2)c2ccc(F)cc21` the outcome was “inactive”.
With `COCC(C)OCC(C)OCC(C)O` (stereo not given) the AC50 was inconclusive: 50 µM.
With `CCOC(OCC)OCC` the AC50 was inconclusive: 23.9 µM.
With `CC(C)CCCCCCc1ccc(O)cc1` the AC50 was inconclusive: 83.5 µM and inconclusive: 23 µM and inconclusive: 83.7 µM.
`O=c1ccc2ccccc2o1` was tested, and the AC50 was inconclusive: 0.0298 µM.
With `CC(C)=CCCC(C)=CC#N` the AC50 was inconclusive: 5.96 µM.
In the case of `O=C=NCCCCCCN=C=O`, the outcome is reported as “inactive”.
In the case of `CC1=NN(c2cc(S(=O)(=O)O)ccc2Cl)C(=O)C1N=Nc1ccccc1` (stereo not given), the AC50 is reported as inconclusive: 11.1 µM.
In the case of `CCOC(=O)c1ccc(O)cc1`, the outcome is reported as “inactive”.
With `Nc1ccc(C(=O)O)cc1` the outcome was “inactive”.
